Reference: PubChem BioAssay AID188 (DTP/NCI, 2004)
Shown are survivors of the treated group in tumour-free mice. Counts of survivors are from the toxicity check (mostly the fifth day) where no day follows; animals may have died later. Schedules are NCI's codes, read here as Q, the interval in days (D) or hours (H), X, the number of doses.

System: CD2F1 mice, nontumored, toxicity/survival
Experiment: NCI In Vivo Anticancer Drug Screen. Data for tumor model Nontumored Animals (Toxicity Test) in CD2F1 (CDF1) mice
Conditions: vehicle: water

Structure (SMILES): C[n+]1ccc(Nc2ccc(NC(=O)c3ccc(Nc4cc[n+](C)c5ccc(N)cc45)cc3)cc2)cc1
- survivor count (dose: 0.25 mg/kg/injection, schedule: Q03HX008 (ip)): 8 of 8
- survivor count (dose: 0.25 mg/kg/injection, schedule: Q03HX016 (ip)): 8 of 8
- survivor count (dose: 0.25 mg/kg/injection, schedule: Q03HX024 (ip)): 8 of 8
- survivor count (dose: 0.5 mg/kg/injection, schedule: Q01DX005 (ip)): 8 of 8
- survivor count (dose: 0.5 mg/kg/injection, schedule: Q01DX009 (ip)): 8 of 8
- survivor count (dose: 0.5 mg/kg/injection, schedule: Q01DX009 (sc)): 8 of 8
- survivor count (dose: 0.5 mg/kg/injection, schedule: Q03HX008 (ip)): 8 of 8
- survivor count (dose: 0.5 mg/kg/injection, schedule: Q03HX016 (ip)): 8 of 8
- survivor count (dose: 0.5 mg/kg/injection, schedule: Q03HX024 (ip)): 8 of 8
- survivor count (dose: 1.0 mg/kg/injection, schedule: Q01DX005 (ip)): 8 of 8
- survivor count (dose: 1.0 mg/kg/injection, schedule: Q01DX009 (ip)): 8 of 8
- survivor count (dose: 1.0 mg/kg/injection, schedule: Q01DX009 (sc)): 8 of 8
- survivor count (dose: 1.0 mg/kg/injection, schedule: Q03HX008 (ip)): 8 of 8
- survivor count (dose: 1.0 mg/kg/injection, schedule: Q03HX016 (ip)): 8 of 8
- survivor count (dose: 1.0 mg/kg/injection, schedule: Q03HX024 (ip)): 8 of 8
- survivor count (dose: 2.0 mg/kg/injection, schedule: Q01DX001 (ip)): 8 of 8
- survivor count (dose: 2.0 mg/kg/injection, schedule: Q01DX001 (sc)): 8 of 8
- survivor count (dose: 2.0 mg/kg/injection, schedule: Q01DX005 (ip)): 8 of 8
- survivor count (dose: 2.0 mg/kg/injection, schedule: Q01DX009 (ip)): 8 of 8
- survivor count (dose: 2.0 mg/kg/injection, schedule: Q01DX009 (oral)): 8 of 8
- survivor count (dose: 2.0 mg/kg/injection, schedule: Q01DX009 (sc)): 8 of 8
- survivor count (dose: 2.0 mg/kg/injection, schedule: Q03HX008 (ip)): 8 of 8
- survivor count (dose: 2.0 mg/kg/injection, schedule: Q03HX016 (ip)): 8 of 8
- survivor count (dose: 2.0 mg/kg/injection, schedule: Q03HX024 (ip)): 8 of 8
- survivor count (dose: 2.0 mg/kg/injection, schedule: Q04DX003 (ip)): 8 of 8
- survivor count (dose: 2.0 mg/kg/injection, schedule: Q08DX002 (ip)): 8 of 8
- survivor count (dose: 4.0 mg/kg/injection, schedule: Q01DX001 (ip)): 8 of 8
- survivor count (dose: 4.0 mg/kg/injection, schedule: Q01DX001 (sc)): 8 of 8
- survivor count (dose: 4.0 mg/kg/injection, schedule: Q01DX005 (ip)): 8 of 8
- survivor count (dose: 4.0 mg/kg/injection, schedule: Q01DX009 (ip)): 8 of 8
- survivor count (dose: 4.0 mg/kg/injection, schedule: Q01DX009 (oral)): 8 of 8
- survivor count (dose: 4.0 mg/kg/injection, schedule: Q01DX009 (sc)): 8 of 8
- survivor count (dose: 4.0 mg/kg/injection, schedule: Q03HX008 (ip)): 8 of 8
- survivor count (dose: 4.0 mg/kg/injection, schedule: Q03HX016 (ip)): 7 of 8
- survivor count (dose: 4.0 mg/kg/injection, schedule: Q03HX024 (ip)): 7 of 8
- survivor count (dose: 4.0 mg/kg/injection, schedule: Q04DX003 (ip)): 8 of 8
- survivor count (dose: 4.0 mg/kg/injection, schedule: Q08DX002 (ip)): 8 of 8
- survivor count (dose: 8.0 mg/kg/injection, schedule: Q01DX001 (ip)): 6 of 8
- survivor count (dose: 8.0 mg/kg/injection, schedule: Q01DX001 (oral)): 8 of 8
- survivor count (dose: 8.0 mg/kg/injection, schedule: Q01DX001 (sc)): 8 of 8
- survivor count (dose: 8.0 mg/kg/injection, schedule: Q01DX005 (ip)): 6 of 8
- survivor count (dose: 8.0 mg/kg/injection, schedule: Q01DX009 (ip)): 1 of 8
- survivor count (dose: 8.0 mg/kg/injection, schedule: Q01DX009 (oral)): 8 of 8
- survivor count (dose: 8.0 mg/kg/injection, schedule: Q01DX009 (sc)): 8 of 8
- survivor count (dose: 8.0 mg/kg/injection, schedule: Q03HX008 (ip)): 2 of 8
- survivor count (dose: 8.0 mg/kg/injection, schedule: Q03HX016 (ip)): 3 of 8
- survivor count (dose: 8.0 mg/kg/injection, schedule: Q03HX024 (ip)): 6 of 8
- survivor count (dose: 8.0 mg/kg/injection, schedule: Q04DX003 (ip)): 3 of 8
- survivor count (dose: 8.0 mg/kg/injection, schedule: Q08DX002 (ip)): 4 of 8
- survivor count (dose: 16.0 mg/kg/injection, schedule: Q01DX001 (ip)): 0 of 8
- survivor count (dose: 16.0 mg/kg/injection, schedule: Q01DX001 (oral)): 8 of 8
- survivor count (dose: 16.0 mg/kg/injection, schedule: Q01DX001 (sc)): 7 of 8
- survivor count (dose: 16.0 mg/kg/injection, schedule: Q01DX005 (ip)): 0 of 8
- survivor count (dose: 16.0 mg/kg/injection, schedule: Q01DX009 (ip)): 0 of 8
- survivor count (dose: 16.0 mg/kg/injection, schedule: Q01DX009 (oral)): 8 of 8
- survivor count (dose: 16.0 mg/kg/injection, schedule: Q01DX009 (sc)): 3 of 8
- survivor count (dose: 16.0 mg/kg/injection, schedule: Q04DX003 (ip)): 0 of 8
- survivor count (dose: 16.0 mg/kg/injection, schedule: Q08DX002 (ip)): 0 of 8
- survivor count (dose: 32.0 mg/kg/injection, schedule: Q01DX001 (ip)): 0 of 8
- survivor count (dose: 32.0 mg/kg/injection, schedule: Q01DX001 (oral)): 8 of 8
- survivor count (dose: 32.0 mg/kg/injection, schedule: Q01DX001 (sc)): 8 of 8
- survivor count (dose: 32.0 mg/kg/injection, schedule: Q01DX009 (oral)): 8 of 8
- survivor count (dose: 32.0 mg/kg/injection, schedule: Q04DX003 (ip)): 0 of 8
- survivor count (dose: 32.0 mg/kg/injection, schedule: Q08DX002 (ip)): 0 of 8
- survivor count (dose: 64.0 mg/kg/injection, schedule: Q01DX001 (ip)): 0 of 8
- survivor count (dose: 64.0 mg/kg/injection, schedule: Q01DX001 (oral)): 8 of 8
- survivor count (dose: 64.0 mg/kg/injection, schedule: Q01DX001 (sc)): 7 of 8
- survivor count (dose: 64.0 mg/kg/injection, schedule: Q01DX009 (oral)): 7 of 8
- survivor count (dose: 64.0 mg/kg/injection, schedule: Q04DX003 (ip)): 0 of 8
- survivor count (dose: 64.0 mg/kg/injection, schedule: Q08DX002 (ip)): 0 of 8
- survivor count (dose: 128.0 mg/kg/injection, schedule: Q01DX001 (oral)): 8 of 8
- survivor count (dose: 256.0 mg/kg/injection, schedule: Q01DX001 (oral)): 8 of 8

Structure (SMILES): COc1cc2c3c(c1)-c1c(ccc(OC)c1OC)CC3N(CCCl)CC2 (stereo not given)
- survivor count (dose: 1.0 mg/kg/injection, schedule: Q01DX001 (ip)): 2 of 2
- survivor count (dose: 10.0 mg/kg/injection, schedule: Q01DX001 (ip)): 2 of 2
- survivor count (dose: 100.0 mg/kg/injection, schedule: Q01DX001 (ip)): 2 of 2
